According to US6858705 (dated 2005):

Experiment: general procedure: Fmoc solid-phase peptide synthesis; 2-chlorotrityl chloride resin
Details: analytical reverse phase HPLC, electrospray mass spectrometry for identity

BOC-Lys(BOC)-Lys-D-Tyr(O-tBu)-D-Lys-OH
crude purity (method not given) (whole synthesis): ˜90% pure

Lys-Asp-D-Tyr-D-Lys((1-(p-CSNH)benzyl) DTPA)-OH
purity (crude or final not stated) (conjugation step): ˜90% pure
